Reference: publication PMC7272351
These are yes or no findings as the source states them, for the method shown. In cells and extracts the contact can be indirect.

Protein sequences, listed by entry. Tags and fused reporters are not part of them. Lines headed by an entry give the natural chain unless they say otherwise; changes in a name come on top. Residues count along the entry.
UniProt Q9BWN1, residues 455-517: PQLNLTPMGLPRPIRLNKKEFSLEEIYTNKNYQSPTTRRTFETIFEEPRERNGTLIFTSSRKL
UniProt Q15172: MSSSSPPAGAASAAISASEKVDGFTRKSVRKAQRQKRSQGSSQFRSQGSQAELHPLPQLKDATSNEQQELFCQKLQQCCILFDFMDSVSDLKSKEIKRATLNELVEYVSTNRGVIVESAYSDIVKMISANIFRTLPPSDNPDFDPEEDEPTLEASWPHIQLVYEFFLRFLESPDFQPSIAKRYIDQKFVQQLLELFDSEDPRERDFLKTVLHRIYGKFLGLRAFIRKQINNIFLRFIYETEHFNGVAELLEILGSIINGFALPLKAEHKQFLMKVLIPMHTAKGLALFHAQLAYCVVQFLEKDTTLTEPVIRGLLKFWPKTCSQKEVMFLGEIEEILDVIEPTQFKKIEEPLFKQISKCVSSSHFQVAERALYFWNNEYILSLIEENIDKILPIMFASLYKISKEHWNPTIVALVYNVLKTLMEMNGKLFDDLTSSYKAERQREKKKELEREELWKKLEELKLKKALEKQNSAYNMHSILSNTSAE

Biological target: GFP-tagged human PRR14 Tantalus domain (455–517), wild type (human) (UniProt Q9BWN1)
Test: co-IP; GFP-Trap magnetic agarose beads (GFP nanobody) added to lysates of HeLa cells co-transfected with GFP-Tantalus (bait) and HA-B56α (prey); lysis in 10 mM Tris-HCl pH 7.5, 150 mM NaCl, 0.5 mM EDTA, 0.5% NP-40; 1 h at 4°C; anti-HA western blot; the paper calls it a pulldown

HA-tagged human PP2A B56α with binding pocket mutations (R222E, R226E) (from UniProt Q15172)
binding: no binding
